Laboratory results taken from patent publication US9468632B2, “Methods and compositions for targeting cancer stem cells” (The Regents of the University of Michigan, priority 2012, dated 2016).
At least one structure is not confirmed: it was looked up by name or label, or the drawing left a doubt.

Legend:
[1] = tested on: in vitro treated, PI-/Annexin-FACS isolated live cells; assay: Tumor initiation capacity of in vitro treated live cells injected into mice; type: in vivo; details: compared to untreated controls
Experimental: An important functional aspect of a cancer stem cell is the ability to initiate tumors with limited cell numbers. In order to determine if UM673 could impact tumor initiation, cells were treated in vitro with a single dose of UM673 alone or in combination with cisplatin. Cells were allowed to recover for three days and then PI(−)/Annexin(−) live cells were faxed isolated and injected into mice. 200, 1000, or 5000 cells from each treatment group (n=4-10/group) were injected.

A2770 cells = assay: FACS analysis of CD133 and ALDH expressing cells; type: cell-based

SMILES: CCN(CC)C(=S)SSC(=S)N(CC)CC [disulfiram, Disulfiram, reference compound]
- effect on tumor initiation capacity [1]: did not eliminate tumor initiation capacity alone or in combination with chemotherapy
- loss of ALDH+ and CD133+ cells (A2770 cells): some modest ability to deplete CD133+ cells
